Drawing on US20260118369A1, this text covers binding for two molecules.

The chains behind the UniProt entries cited, without tags or fusion partners. Where a name states a change or a piece, a line headed by the entry shows the natural chain unless it says otherwise. Residues count along the entry.
UniProt P12111, residues 3101-3177: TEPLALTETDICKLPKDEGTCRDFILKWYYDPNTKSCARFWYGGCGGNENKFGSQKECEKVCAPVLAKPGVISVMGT

No constants are given. Whether binding was seen depends on the method and setting. Some binding calls cover weakened binding; strength is not graded here.

The target in assay [1] is human endotrophin as present in tissue and serum samples (human) (UniProt P12111). As to the kind of experiment: ELISA of human serum samples. For orientation: ELISA stands for enzyme-linked immunosorbent assay.
For assay [2], the target named is endotrophin recombinant protein (Sino Biologicals, Col6A3, catalog #16125-H07H) (human) (UniProt P12111). As to the kind of experiment: sandwich ELISA, ETN4.1 as coated capture antibody.
Assay [3] has the same target. As to the kind of experiment: sandwich ELISA, ETN-1Rb as detection antibody.

B1: ETN4.1 (antibody, V domains shown)
VH: EVQLLESGGGLVQPGGSLRLSCAASGFSFSSGYYICWVRQAPGKGLEWIACIYGGNNNPYYANWVNGRFTISRDNSKNTLYLQMNSLRAEDTAVYYCARKDINIGGAYELWGQGTLVTVSS
VL: DIQMTQSPSSLSASVGDRVTITCQASQSISSSYLSWYQQKPGKAPKLLIYKASTLASGVPSRFSGSGSGTDFTLTISSLQPEDFATYYCQYSDWANSYGNAFGGGTKVEIK
Take B1: the binding entry in assay [1] and in assay [2] was “binds” each time.

B2: ETN-1Rb (antibody, V domains shown)
VH: QSVKESGGDLVKPGASLTLTCTASGIDFSAGYYMCWVRQAPGKGLELIACIYAGRSLNTFYASWAKGRFTISRASSTTVTLAMTSLTAADTATYFCARDGASSGYYFKLWGPGTLVTISS
VL: ELDMTQTPASVEVAVGGTVTIKCQASQSIGSNLAWYQQKPGQRPNVLIYDASNLASGVSSRFKGSGSGTQFTLTISGGECADAATYYCQQGYSDNYLDNAFGGGTEVVVK
As to B2, the binding result in assay [3] is “binds”.
